# Results are given in words; binding and its absence hold for the method and conditions named. Some results given as binding are weak or reduced against the parent protein; the word gives no strength.
# Amino acid sequences for entries named in this document (tags omitted). A change or cut given only in a name is not applied to a line headed by its entry.
# UniProt Q04609: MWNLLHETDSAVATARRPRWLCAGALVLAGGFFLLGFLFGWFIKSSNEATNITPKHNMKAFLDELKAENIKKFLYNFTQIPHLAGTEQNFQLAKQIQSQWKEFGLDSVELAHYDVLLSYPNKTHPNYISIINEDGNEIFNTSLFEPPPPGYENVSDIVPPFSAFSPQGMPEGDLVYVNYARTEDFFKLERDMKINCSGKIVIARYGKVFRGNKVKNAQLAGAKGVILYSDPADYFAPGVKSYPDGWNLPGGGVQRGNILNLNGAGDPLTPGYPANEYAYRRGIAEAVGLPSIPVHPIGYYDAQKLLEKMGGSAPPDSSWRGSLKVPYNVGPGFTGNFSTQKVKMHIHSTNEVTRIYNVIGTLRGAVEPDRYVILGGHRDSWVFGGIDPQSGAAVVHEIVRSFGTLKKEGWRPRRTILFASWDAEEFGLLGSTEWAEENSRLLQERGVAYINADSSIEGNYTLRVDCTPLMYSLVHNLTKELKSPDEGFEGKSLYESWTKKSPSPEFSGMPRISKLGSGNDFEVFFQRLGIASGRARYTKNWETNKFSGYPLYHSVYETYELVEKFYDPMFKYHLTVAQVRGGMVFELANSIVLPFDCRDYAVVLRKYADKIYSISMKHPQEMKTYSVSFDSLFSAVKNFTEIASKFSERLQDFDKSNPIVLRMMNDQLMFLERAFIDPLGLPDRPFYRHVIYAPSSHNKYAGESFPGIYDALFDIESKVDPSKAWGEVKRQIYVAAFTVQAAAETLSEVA
# Molecular target: soluble heterodimeric hCD3ε/δ.mFc protein (human)
# Assay: SPR, 37 C, antigen-capture format
row,binding,Binder
1,binds,"BSPSMA/CD3-800 (bispecific antibody, IgG4, V domains shown) VH 1: QVQLVESGGGVVQPGRSLRLSCAASGFTFSSYGMHWVRQAPGKGLEWVAVISYAGNNKYYADSVKGRFTVSRDNSKKTLYLQMNSLRSEDTAVYYCAKDSYYDFLTDPDVLDIWGQGTMVTVSS VH 2: EVQLVESGGGLVQPGRSLRLSCAASGFTFDDYSMHWVRQAPGKGLEWVSGISWNSGSIGYADSVKGRFTISRDNAKNSLYLQMNSLRAEDTALYYCAKYGSGYGKFYHYGLDVWGQGTTVTVSS VL: DIQMTQSPSSLSASVGDSVTITCRASQSINNYLNWYQQKPGKAPKLLIYTASSLLSGVPSRFSGSGSGTDFTLTISGLHPEDFATYFCQQSFSTPPITFGQGTRLDIK"

# Molecular target: human PSMA on PSMA-expressing cells (human) (UniProt Q04609)
# Assay: FACS on PSMA-expressing cells
row,binding,Binder
1,binds,"BSPSMA/CD3-003 (bispecific antibody, IgG4, V domains shown) VH 1: QVQLVESGGGVVQPGRSLRLSCAASGFTFSSYGMHWVRQAPGKGLEWVAVISYAGNNKYYADSVKGRFTVSRDNSKKTLYLQMNSLRSEDTAVYYCAKDSYYDFLTDPDVLDIWGQGTMVTVSS VH 2: EVQLVESGGGLVQPGRSLRLSCAASGFTFDDYSMHWVRQAPGKGLEWVSGISWNSGSKGYADSVKGRFTISRDNAKNSLYLQMNSLRAEDTALYYCAKYGSGYGKFYHYGLDVWGQGTTVTVSS VL: DIQMTQSPSSLSASVGDSVTITCRASQSINNYLNWYQQKPGKAPKLLIYTASSLLSGVPSRFSGSGSGTDFTLTISGLHPEDFATYFCQQSFSTPPITFGQGTRLDIK"
2,binds,"BSPSMA/CD3-400 (bispecific antibody, IgG4, V domains shown) VH 1: QVQLVESGGGVVQPGRSLRLSCAASGFTFSSYGMHWVRQAPGKGLEWVAVISYAGNNKYYADSVKGRFTVSRDNSKKTLYLQMNSLRSEDTAVYYCAKDSYYDFLTDPDVLDIWGQGTMVTVSS VH 2: EVQLVESGGGLVQPGRSLRLSCAASGFTFDDYAMHWVRQAPGKGLEWVSGISWNSGSIGYADSVKGRFTISRDNAKNSLYLQMNSLRAEDTALYYCAKDGSGYGKFYYYGMDVWGQGTTVTVSS VL: DIQMTQSPSSLSASVGDSVTITCRASQSINNYLNWYQQKPGKAPKLLIYTASSLLSGVPSRFSGSGSGTDFTLTISGLHPEDFATYFCQQSFSTPPITFGQGTRLDIK"
3,binds,"BSPSMA/CD3-300 (bispecific antibody, IgG4, V domains shown) VH 1: QVQLVESGGGVVQPGRSLRLSCAASGFTFSSYGMHWVRQAPGKGLEWVAVISYAGNNKYYADSVKGRFTVSRDNSKKTLYLQMNSLRSEDTAVYYCAKDSYYDFLTDPDVLDIWGQGTMVTVSS VH 2: EVQLVESGGGLVQPGRSLRLSCAASGFTFDDYSMHWVRQAPGKGLEWVSGISWNSGSIGYADSVKGRFTISRDNAKNSLYLQMNSLRAEDTALYYCAKDGSGYGYFYYYGMDVWGQGTTVTVSS VL: DIQMTQSPSSLSASVGDSVTITCRASQSINNYLNWYQQKPGKAPKLLIYTASSLLSGVPSRFSGSGSGTDFTLTISGLHPEDFATYFCQQSFSTPPITFGQGTRLDIK"
4,binds,"BSPSMA/CD3-1800 (bispecific antibody, IgG4, V domains shown) VH 1: QVQLVESGGGVVQPGRSLRLSCAASGFTFSSYGMHWVRQAPGKGLEWVAVISYAGNNKYYADSVKGRFTVSRDNSKKTLYLQMNSLRSEDTAVYYCAKDSYYDFLTDPDVLDIWGQGTMVTVSS VH 2: EVQLVESGGGLVQPGRSLRLSCAASGFTFDDYSMHWVRQAPGKGLEWVSGISWNSGSIGYADSVKGRFTISRDNAKNSLYLQMNSLRAEDTALYYCAKDGSGYGKFYYYGLDVWGQGTTVTVSS VL: DIQMTQSPSSLSASVGDSVTITCRASQSINNYLNWYQQKPGKAPKLLIYTASSLLSGVPSRFSGSGSGTDFTLTISGLHPEDFATYFCQQSFSTPPITFGQGTRLDIK"
5,binds,"BSPSMA/CD3-800 (bispecific antibody, IgG4, V domains shown) VH 1: QVQLVESGGGVVQPGRSLRLSCAASGFTFSSYGMHWVRQAPGKGLEWVAVISYAGNNKYYADSVKGRFTVSRDNSKKTLYLQMNSLRSEDTAVYYCAKDSYYDFLTDPDVLDIWGQGTMVTVSS VH 2: EVQLVESGGGLVQPGRSLRLSCAASGFTFDDYSMHWVRQAPGKGLEWVSGISWNSGSIGYADSVKGRFTISRDNAKNSLYLQMNSLRAEDTALYYCAKYGSGYGKFYHYGLDVWGQGTTVTVSS VL: DIQMTQSPSSLSASVGDSVTITCRASQSINNYLNWYQQKPGKAPKLLIYTASSLLSGVPSRFSGSGSGTDFTLTISGLHPEDFATYFCQQSFSTPPITFGQGTRLDIK"
6,binds,"BSPSMA/CD3-200 (bispecific antibody, IgG4, V domains shown) VH 1: QVQLVESGGGVVQPGRSLRLSCAASGFTFSSYGMHWVRQAPGKGLEWVAVISYAGNNKYYADSVKGRFTVSRDNSKKTLYLQMNSLRSEDTAVYYCAKDSYYDFLTDPDVLDIWGQGTMVTVSS VH 2: EVQLVESGGGLVQPGRSLRLSCAASGFTFDDYAMHWVRQAPGKGLEWVSGISWNSGSIGYADSVKGRFTISRDNAKNSLYLQMNSLRAEDTALYYCAKDGSGYGYFYYYGMDVWGQGTTVTVSS VL: DIQMTQSPSSLSASVGDSVTITCRASQSINNYLNWYQQKPGKAPKLLIYTASSLLSGVPSRFSGSGSGTDFTLTISGLHPEDFATYFCQQSFSTPPITFGQGTRLDIK"

# — US20190127480A1
